PubChem BioAssay AID504764 | Drosophila RNAi Screening Center | 2011
Screen: 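Genes whose knock-down alters Notch-dependent transcription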 (primary screen). Cell system: Drosophila Kc167 cells. Reagent: long dsRNA against Drosophila genes. Timing: about 5 days (4 days dsRNA, then 24 h after transfection). Treatment: transfection of constitutively active membrane-tethered Notch lacking the extracellular domain, read 24 h later. Read-out: 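Light from a Notch-responsive E(spl)m3 luciferase reporter under active Notch, with control-promoter and no-Notch reporter wells to normalise; raw counts from paired wells a and b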. Scale: induced reporter light, run 1, well a and induced reporter light, run 1, well b: higher = more light from the Notch target reporter with active Notch; control promoter light, run 1, well a and control promoter light, run 1, well b: higher = more light from the viral control promoter (cell number, transfection, viability); uninduced reporter light, run 1, well a: higher = more light from the Notch target reporter without active Notch. Rule for the call: 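Hit if the duplicate-averaged log2 ratio of induced to control-promoter light gives a plate-wise z beyond ±2, or induced to uninduced beyond ±1.8; weak-control or discordant-duplicate wells dropped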. Meaning of the calls: active = modifier hit (raised or lowered Notch signal); inactive = not a hit.
In all, the deposit lists about 22,000 reagents; shown is an unselected part of those with a known target gene and a result. Of all reagents, 403 (1.9%) got an active call. 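Unnormalised raw counts per well; ratio z-scores behind the hit calls and whether each hit raises or lowers signal are not deposited.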 Reagents against one gene are numbered here. Not given: the amount of reagent.

target	reagent no.	induced reporter light, run 1, well a	induced reporter light, run 1, well b	control promoter light, run 1, well a	control promoter light, run 1, well b	uninduced reporter light, run 1, well a	outcome
CG15142	1	1.26e5	1.40e5	1.29e5	1.29e5	11485	inactive
CG4950	1	2.11e5	2.25e5	2.66e5	2.75e5	12910	inactive
CG8136	1	1.12e5	1.13e5	1.09e5	80045	9730	inactive
CG18599	1	1.51e5	1.62e5	1.79e5	1.81e5	12475	inactive
CG18599	2						inactive
CG13473	1	1.00e5	1.06e5	67565	71700	8600	inactive
Ntf-2 (Nuclear transport factor-2)	1	1.28e5	1.28e5	1.03e5	46930	9710	inactive
Pitslre	1	99780	1.29e5	73515	60400	5535	inactive
Abi (Abelson interacting protein)	1	1.04e5	1.26e5	97990	75520	8725	inactive
cv-c (crossveinless c)	1	2.75e5	2.87e5	2.14e5	2.53e5	20175	inactive
cv-c (crossveinless c)	2	2.35e5	2.41e5	2.05e5	2.23e5	18960	inactive
cv-c (crossveinless c)	3	41265	41975	25470	24710	9110	inactive
cv-c (crossveinless c)	4	2.59e5	1.86e5	2.28e5	2.08e5	17305	inactive
cv-c (crossveinless c)	5	93490	1.06e5	65985	73550	9625	inactive
cv-c (crossveinless c)	6	3.87e5	3.50e5	3.15e5	2.95e5	28370	inactive
l(2)efl (lethal (2) essential for life)	1	1.43e5	1.66e5	1.44e5	1.46e5	12160	inactive
Ubc87F (Ubiquitin conjugating enzyme 87F)	1	2.33e5	2.46e5	2.06e5	2.17e5	18145	inactive
ArgRS-m (Arginyl-tRNA synthetase, mitochondrial)	1	78155	94800	74185	67090	5880	inactive
Apt1 (Acyl-protein thioesterase 1)	1	1.48e5	1.40e5	1.54e5	1.27e5	7105	inactive
Oatp33Eb (Organic anion transporting polypeptide 33Eb)	1	1.71e5	1.75e5	1.63e5	1.71e5	13770	inactive
CG18788	1	1.28e5	1.44e5	1.56e5	1.87e5	14045	inactive
Glt (Glutactin)	1	2.47e5	2.55e5	2.52e5	2.50e5	17980	inactive
slp1 (sloppy paired 1)	1	1.52e5	2.03e5	2.04e5	2.01e5	18250	inactive
Lcp4 (Larval cuticle protein 4)	1	1.56e5	1.43e5	1.92e5	1.90e5	13505	inactive
CG32687	1	1.54e5	1.36e5	3.04e5	2.32e5	11230	inactive
CG32687	2	1.38e5	86005	1.85e5	2.08e5	7440	inactive
CG13931	1	1.15e5	1.06e5	1.81e5	2.60e5	8520	inactive
CR42545 (pseudo)	1	56180	59485	55065	52735	3095	inactive
dec (defective chorion)	1	1.79e5	1.72e5	2.57e5	3.28e5	12685	inactive
CG7017	1	87590	1.01e5	1.18e5	73680	5200	inactive
CG15141	1	2.91e5	2.22e5	2.17e5	2.48e5	19325	inactive
CG15141	2	1.42e5	1.48e5	1.43e5	1.40e5	10005	inactive
ana3 (anastral spindle 3)	1	90775	98160	1.36e5	1.45e5	10030	inactive
Rim (Rab3 interacting molecule)	1	1.69e5	1.67e5	2.02e5	2.08e5	14255	inactive
Rim (Rab3 interacting molecule)	2	12815	11192	13810	15100	3738	inactive
Rim (Rab3 interacting molecule)	3	1.50e5	1.67e5	1.80e5	1.90e5	15135	inactive
Rim (Rab3 interacting molecule)	4	2.23e5	1.97e5	1.89e5	2.00e5	14515	inactive
CG33230	1	1.11e5	1.21e5	2.28e5	2.36e5	11165	inactive
CG4455	1	1.84e5	1.89e5	1.90e5	1.80e5	19865	active
CG18449	1	1.75e5	1.64e5	2.57e5	2.19e5	17840	inactive
HemK1 (HemK methyltransferase 1)	1	1.84e5	2.51e5	1.84e5	2.24e5	17785	inactive
CG10919	1	60590	74845	65925	49395	6425	inactive
CG14218	1	1.10e5	1.14e5	1.18e5	1.17e5	13120	inactive
CG7791	1	2.35e5	2.17e5	1.71e5	2.44e5	16020	inactive
CG13067	1	1.72e5	1.33e5	1.68e5	1.74e5	6925	inactive
CG16789	1	1.05e5	94840	86635	58900	5635	inactive
CG9592	1	1.47e5	1.62e5	2.45e5	2.50e5	8175	inactive
CG9213	1	1.05e5	1.12e5	1.11e5	82055	6420	inactive
Tsp42En (Tetraspanin 42En)	1	2.03e5	2.01e5	2.00e5	2.28e5	16095	inactive
CG8547	1	1.18e5	97650	98610	1.03e5	8155	inactive

Reformatted: results already given.
target,reagent no.,"induced reporter light, run 1, well a","induced reporter light, run 1, well b","control promoter light, run 1, well a","control promoter light, run 1, well b","uninduced reporter light, run 1, well a",outcome
CG8136,1,1.12e5,1.13e5,1.09e5,80045,9730,inactive
CG18599,1,1.51e5,1.62e5,1.79e5,1.81e5,12475,inactive
CG18599,2,,,,,,inactive
CG13473,1,1.00e5,1.06e5,67565,71700,8600,inactive
Ntf-2 (Nuclear transport factor-2),1,1.28e5,1.28e5,1.03e5,46930,9710,inactive
Pitslre,1,99780,1.29e5,73515,60400,5535,inactive
Abi (Abelson interacting protein),1,1.04e5,1.26e5,97990,75520,8725,inactive
